Results are given in words; binding and its absence hold for the method and conditions named. In cells and extracts the contact can be indirect. Some results given as binding are weak or reduced against the parent protein; the word gives no strength.
Legend:
[1] = molecular target: Myc-tagged EZH2 (enhancer of zeste homolog 2) (UniProt Q15910); experiment: co-IP; HEK 293 cells transiently transfected with Flag-tagged Smurf2 and Myc-tagged EZH2, with or without MG132
[2] = molecular target: endogenous EZH2 (human (endogenous in 3A6-hMSCs)) (UniProt Q15910); experiment: co-IP; endogenous proteins in 3A6-hMSCs treated with NIM for 1 day, with or without MG132

By UniProt entry, the sequences of proteins in these tests, tags left out.
UniProt Q15910: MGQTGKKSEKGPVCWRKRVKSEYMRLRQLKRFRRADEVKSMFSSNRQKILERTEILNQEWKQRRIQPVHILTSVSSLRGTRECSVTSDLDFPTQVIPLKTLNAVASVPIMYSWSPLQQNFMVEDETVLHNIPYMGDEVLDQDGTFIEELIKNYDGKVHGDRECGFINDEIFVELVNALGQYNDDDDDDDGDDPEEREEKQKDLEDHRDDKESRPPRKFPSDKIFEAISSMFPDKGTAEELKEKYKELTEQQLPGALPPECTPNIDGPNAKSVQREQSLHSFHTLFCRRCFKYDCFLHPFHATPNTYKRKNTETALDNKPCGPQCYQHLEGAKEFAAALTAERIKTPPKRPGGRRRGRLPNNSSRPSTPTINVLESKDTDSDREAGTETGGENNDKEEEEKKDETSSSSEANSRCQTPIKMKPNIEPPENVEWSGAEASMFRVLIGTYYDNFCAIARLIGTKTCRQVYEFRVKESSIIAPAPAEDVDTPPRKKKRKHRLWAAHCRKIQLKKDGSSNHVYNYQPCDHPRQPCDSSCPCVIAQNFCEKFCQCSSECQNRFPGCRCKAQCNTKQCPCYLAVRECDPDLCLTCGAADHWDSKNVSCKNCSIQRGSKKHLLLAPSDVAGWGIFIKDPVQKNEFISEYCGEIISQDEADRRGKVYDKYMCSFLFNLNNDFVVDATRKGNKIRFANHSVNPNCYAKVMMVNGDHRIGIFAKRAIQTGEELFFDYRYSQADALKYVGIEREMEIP
UniProt Q9HAU4: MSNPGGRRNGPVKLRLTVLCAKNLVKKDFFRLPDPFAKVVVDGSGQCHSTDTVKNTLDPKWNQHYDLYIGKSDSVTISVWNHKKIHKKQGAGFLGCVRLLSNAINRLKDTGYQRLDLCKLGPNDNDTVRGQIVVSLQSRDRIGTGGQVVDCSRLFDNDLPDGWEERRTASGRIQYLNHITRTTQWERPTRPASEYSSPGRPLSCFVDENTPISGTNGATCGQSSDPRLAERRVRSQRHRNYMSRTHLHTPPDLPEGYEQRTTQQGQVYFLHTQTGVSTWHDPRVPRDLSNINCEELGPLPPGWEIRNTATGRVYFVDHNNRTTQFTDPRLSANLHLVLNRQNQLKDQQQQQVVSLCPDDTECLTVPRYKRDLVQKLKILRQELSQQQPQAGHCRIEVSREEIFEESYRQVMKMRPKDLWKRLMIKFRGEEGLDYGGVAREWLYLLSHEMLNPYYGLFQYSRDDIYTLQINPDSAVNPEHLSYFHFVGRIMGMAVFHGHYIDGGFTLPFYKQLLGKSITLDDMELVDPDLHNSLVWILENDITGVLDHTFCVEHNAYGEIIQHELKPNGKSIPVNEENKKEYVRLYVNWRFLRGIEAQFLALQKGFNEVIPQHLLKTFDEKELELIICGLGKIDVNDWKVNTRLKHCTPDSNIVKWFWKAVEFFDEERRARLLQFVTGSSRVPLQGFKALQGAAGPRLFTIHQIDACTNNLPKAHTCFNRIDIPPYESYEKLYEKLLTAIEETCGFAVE

Flag-tagged Smurf2 (Smad ubiquitination regulatory factor-2) (from UniProt Q9HAU4 1-748)
binding [1]: binds

endogenous Smurf2 (from UniProt Q9HAU4 1-748)
binding [2]: binds
